Laboratory results: PubChem BioAssay AID270 (DTP/NCI, 2004)
The list does not hold the whole screen: it gathers some chemical classes. Not every dose and run of a compound is shown. T/C gives the treated animals as a percentage of the vehicle group. Schedules are NCI's codes, taken here to give the interval after Q, in days (D) or hours (H), and the number of doses after X. Some doses were run more than once; the results are listed from low to high. Some T/C values are followed by the survivors on the day toxicity was checked; without a count or a note in brackets, all were alive then. Some doses have a count of surviving animals in place of a T/C: the source holds a T/C of zero for them, seemingly a mark for toxic or unscored doses. Some doses without a T/C left all or most animals alive at the check, yet need not have been tolerated: the source hardly ever lists a survival T/C far under the control, and the zero likely stands for such cases as well. Counts of survivors are from the toxicity check (mostly the fifth day) where no day follows; animals may have died later. Counts of survivors are from the toxicity check, whose day is not always given; animals may have died later. Where survival is the endpoint, this PubChem deposit counts one and a half times the control or more as active, and values a quarter to a half above the control carry no call in these data; other NCI protocols may use other cut-offs. Marks such as (2×) give the number of equal values in this list.

System: BDF1 mice, s.c. Lewis lung carcinoma, T/C %
Experiment: NCI In Vivo Anticancer Drug Screen. Data for tumor model Lewis Lung Carcinoma (subcutaneous) in B6D2F1 (BDF1) mice
Experimental: The antitumor activity of compounds was measured in mice bearing transplantable tumors. Survival or tumor size were measured and the results are expressed as the measurement made in the treated group (T) divided by the measurement made in the vehicle treated control group (C). The tumor model used in this assay is Lewis Lung Carcinoma (subcutaneous) in B6D2F1 (BDF1) mice

[1] = T/C endpoint: median survival time, dose: 105.0 mg/kg/injection, schedule: Q01DX015 (ip), vehicle: other, higher T/C = longer survival
[2] = T/C endpoint: median survival time, dose: 200.0 mg/kg/injection, schedule: Q01DX009 (ip), vehicle: saline with Tween-80, higher T/C = longer survival
[3] = T/C endpoint: median survival time, dose: 400.0 mg/kg/injection, schedule: Q08DX002 (ip), vehicle: saline with Tween-80, higher T/C = longer survival
[4] = T/C endpoint: median survival time, dose: 800.0 mg/kg/injection, schedule: Q08DX002 (ip), vehicle: saline with Tween-80, higher T/C = longer survival

NC(=O)c1[nH]cnc1/N=N\N(CCCl)CCCl
T/C (T/C endpoint: mean tumor weight, dose: 18.5 mg/kg/injection, schedule: Q01DX011 (ip), vehicle: other, evaluated on day 12, higher T/C = larger tumour): 114 % of control [9 of 10 alive]
T/C (T/C endpoint: mean tumor weight, dose: 37.0 mg/kg/injection, schedule: Q01DX011 (ip), vehicle: other, evaluated on day 12, higher T/C = larger tumour): 69 % of control
T/C (T/C endpoint: mean tumor weight, dose: 56.0 mg/kg/injection, schedule: Q01DX011 (ip), vehicle: other, evaluated on day 12, higher T/C = larger tumour): 56 % of control [9 of 10 alive]
T/C (T/C endpoint: median survival time, dose: 16.0 mg/kg/injection, schedule: Q01DX009 (ip), vehicle: other, higher T/C = longer survival): 125 % of control
T/C (T/C endpoint: median survival time, dose: 25.0 mg/kg/injection, schedule: Q01DX009 (ip), vehicle: Klucel (hydroxypropylcellulose) (HPC), higher T/C = longer survival): 108 % of control
T/C (T/C endpoint: median survival time, dose: 25.0 mg/kg/injection, schedule: Q01DX009 (ip), vehicle: saline with Tween-80, higher T/C = longer survival): 101 and 110 % of control
T/C (T/C endpoint: median survival time, dose: 32.0 mg/kg/injection, schedule: Q01DX009 (ip), vehicle: other, higher T/C = longer survival): 91 % of control
T/C (T/C endpoint: median survival time, dose: 47.0 mg/kg/injection, schedule: Q01DX015 (ip), vehicle: other, evaluated on day 41, higher T/C = longer survival): 156 % of control
T/C (T/C endpoint: median survival time, dose: 47.0 mg/kg/injection, schedule: Q01DX015 (ip), vehicle: other, evaluated on day 44, higher T/C = longer survival): 104 % of control
T/C (T/C endpoint: median survival time, dose: 50.0 mg/kg/injection, schedule: Q01DX009 (ip), vehicle: Klucel (hydroxypropylcellulose) (HPC), higher T/C = longer survival): 105 % of control
T/C (T/C endpoint: median survival time, dose: 50.0 mg/kg/injection, schedule: Q01DX009 (ip), vehicle: saline with Tween-80, higher T/C = longer survival): 125 and 144 % of control
T/C (T/C endpoint: median survival time, dose: 64.0 mg/kg/injection, schedule: Q01DX009 (ip), vehicle: other, higher T/C = longer survival): 111 % of control
T/C (T/C endpoint: median survival time, dose: 70.0 mg/kg/injection, schedule: Q01DX015 (ip), vehicle: other, evaluated on day 41, higher T/C = longer survival): 136 % of control
T/C (T/C endpoint: median survival time, dose: 70.0 mg/kg/injection, schedule: Q01DX015 (ip), vehicle: other, evaluated on day 44, higher T/C = longer survival): 100 % of control
T/C (T/C endpoint: median survival time, dose: 100.0 mg/kg/injection, schedule: Q01DX009 (ip), vehicle: Klucel (hydroxypropylcellulose) (HPC), higher T/C = longer survival): 110 % of control
T/C (T/C endpoint: median survival time, dose: 100.0 mg/kg/injection, schedule: Q01DX009 (ip), vehicle: saline with Tween-80, higher T/C = longer survival): 92 and 101 % of control
T/C (T/C endpoint: median survival time, dose: 100.0 mg/kg/injection, schedule: Q08DX002 (ip), vehicle: Klucel (hydroxypropylcellulose) (HPC), higher T/C = longer survival): 93 % of control
T/C (T/C endpoint: median survival time, dose: 100.0 mg/kg/injection, schedule: Q08DX002 (ip), vehicle: saline with Tween-80, higher T/C = longer survival): 110 % of control (2×)
T/C [1]: 115 % of control
survivor count [1]: 10 of 10
survivor count (T/C endpoint: median survival time, dose: 128.0 mg/kg/injection, schedule: Q01DX009 (ip), vehicle: other, higher T/C = longer survival): 10 of 10
T/C (T/C endpoint: median survival time, dose: 130.0 mg/kg/injection, schedule: Q11DX002 (ip), vehicle: other, higher T/C = longer survival): 123 % of control
T/C (T/C endpoint: median survival time, dose: 180.0 mg/kg/injection, schedule: Q01DX001 (ip), vehicle: other, evaluated on day 41, higher T/C = longer survival): 120 % of control
T/C (T/C endpoint: median survival time, dose: 180.0 mg/kg/injection, schedule: Q01DX001 (ip), vehicle: other, evaluated on day 44, higher T/C = longer survival): 92 % of control
survivor count (T/C endpoint: median survival time, dose: 200.0 mg/kg/injection, schedule: Q01DX009 (ip), vehicle: Klucel (hydroxypropylcellulose) (HPC), higher T/C = longer survival): 10 of 10
T/C [2]: 110 % of control
survivor count [2]: 10 of 10
T/C (T/C endpoint: median survival time, dose: 200.0 mg/kg/injection, schedule: Q08DX002 (ip), vehicle: Klucel (hydroxypropylcellulose) (HPC), higher T/C = longer survival): 108 % of control
T/C (T/C endpoint: median survival time, dose: 200.0 mg/kg/injection, schedule: Q08DX002 (ip), vehicle: saline with Tween-80, higher T/C = longer survival): 125 and 130 % of control
T/C (T/C endpoint: median survival time, dose: 200.0 mg/kg/injection, schedule: Q11DX002 (ip), vehicle: other, higher T/C = longer survival): 69 % of control
survivor count (T/C endpoint: median survival time, dose: 256.0 mg/kg/injection, schedule: Q01DX009 (ip), vehicle: other, higher T/C = longer survival): 10 of 10
T/C (T/C endpoint: median survival time, dose: 270.0 mg/kg/injection, schedule: Q01DX001 (ip), vehicle: other, evaluated on day 41, higher T/C = longer survival): 103 % of control
T/C (T/C endpoint: median survival time, dose: 270.0 mg/kg/injection, schedule: Q01DX001 (ip), vehicle: other, evaluated on day 44, higher T/C = longer survival): 102 % of control
T/C (T/C endpoint: median survival time, dose: 300.0 mg/kg/injection, schedule: Q01DX001 (ip), vehicle: other, higher T/C = longer survival): 121 % of control
T/C (T/C endpoint: median survival time, dose: 300.0 mg/kg/injection, schedule: Q11DX002 (ip), vehicle: other, higher T/C = longer survival): 112 % of control
T/C (T/C endpoint: median survival time, dose: 350.0 mg/kg/injection, schedule: Q01DX001 (ip), vehicle: other, higher T/C = longer survival): 111 % of control
T/C (T/C endpoint: median survival time, dose: 400.0 mg/kg/injection, schedule: Q01DX001 (ip), vehicle: other, higher T/C = longer survival): 140 % of control
survivor count (T/C endpoint: median survival time, dose: 400.0 mg/kg/injection, schedule: Q01DX009 (ip), vehicle: Klucel (hydroxypropylcellulose) (HPC), higher T/C = longer survival): 10 of 10
survivor count (T/C endpoint: median survival time, dose: 400.0 mg/kg/injection, schedule: Q01DX009 (ip), vehicle: saline with Tween-80, higher T/C = longer survival): 10 of 10
survivor count (T/C endpoint: median survival time, dose: 400.0 mg/kg/injection, schedule: Q08DX002 (ip), vehicle: Klucel (hydroxypropylcellulose) (HPC), higher T/C = longer survival): 10 of 10
T/C [3]: 142 % of control
survivor count [3]: 10 of 10
T/C (T/C endpoint: median survival time, dose: 405.0 mg/kg/injection, schedule: Q01DX001 (ip), vehicle: other, evaluated on day 41, higher T/C = longer survival): 134 % of control
T/C (T/C endpoint: median survival time, dose: 405.0 mg/kg/injection, schedule: Q01DX001 (ip), vehicle: other, evaluated on day 44, higher T/C = longer survival): 154 % of control
survivor count (T/C endpoint: median survival time, dose: 800.0 mg/kg/injection, schedule: Q08DX002 (ip), vehicle: Klucel (hydroxypropylcellulose) (HPC), higher T/C = longer survival): 10 of 10
T/C [4]: 155 % of control
survivor count [4]: 10 of 10
T/C (T/C endpoint: median tumor weight (est.), dose: 21.7 mg/kg/injection, schedule: Q01DX009 (ip), vehicle: other, evaluated on day 14, higher T/C = larger tumour): 70 % of control
T/C (T/C endpoint: median tumor weight (est.), dose: 22.0 mg/kg/injection, schedule: Q01DX009 (ip), vehicle: other, evaluated on day 14, higher T/C = larger tumour): 53 and 54 % of control
T/C (T/C endpoint: median tumor weight (est.), dose: 25.0 mg/kg/injection, schedule: Q01DX009 (ip), vehicle: Klucel (hydroxypropylcellulose) (HPC), evaluated on day 18, higher T/C = larger tumour): 79 % of control
T/C (T/C endpoint: median tumor weight (est.), dose: 43.5 mg/kg/injection, schedule: Q01DX009 (ip), vehicle: other, evaluated on day 14, higher T/C = larger tumour): 50 % of control
T/C (T/C endpoint: median tumor weight (est.), dose: 44.0 mg/kg/injection, schedule: Q01DX009 (ip), vehicle: other, evaluated on day 14, higher T/C = larger tumour): 30 and 60 % of control
T/C (T/C endpoint: median tumor weight (est.), dose: 50.0 mg/kg/injection, schedule: Q01DX009 (ip), vehicle: Klucel (hydroxypropylcellulose) (HPC), evaluated on day 18, higher T/C = larger tumour): 50 % of control
T/C (T/C endpoint: median tumor weight (est.), dose: 87.0 mg/kg/injection, schedule: Q01DX009 (ip), vehicle: other, evaluated on day 14, higher T/C = larger tumour): 2 [9 of 10 alive on day 14] and 45 % of control
T/C (T/C endpoint: median tumor weight (est.), dose: 100.0 mg/kg/injection, schedule: Q01DX009 (ip), vehicle: Klucel (hydroxypropylcellulose) (HPC), evaluated on day 18, higher T/C = larger tumour): 15 % of control
T/C (T/C endpoint: median tumor weight (est.), dose: 100.0 mg/kg/injection, schedule: Q08DX002 (ip), vehicle: Klucel (hydroxypropylcellulose) (HPC), evaluated on day 18, higher T/C = larger tumour): 51 % of control
T/C (T/C endpoint: median tumor weight (est.), dose: 200.0 mg/kg/injection, schedule: Q01DX009 (ip), vehicle: Klucel (hydroxypropylcellulose) (HPC), evaluated on day 18, higher T/C = larger tumour): 2 % of control [7 of 10 alive]
T/C (T/C endpoint: median tumor weight (est.), dose: 200.0 mg/kg/injection, schedule: Q08DX002 (ip), vehicle: Klucel (hydroxypropylcellulose) (HPC), evaluated on day 18, higher T/C = larger tumour): 46 % of control [9 of 10 alive]
T/C (T/C endpoint: median tumor weight (est.), dose: 400.0 mg/kg/injection, schedule: Q08DX002 (ip), vehicle: Klucel (hydroxypropylcellulose) (HPC), evaluated on day 18, higher T/C = larger tumour): 4 % of control [8 of 10 alive]

CCOC(=O)COc1ccc(N(CCCl)CCCl)cc1
T/C (T/C endpoint: mean tumor weight, dose: 2.5 mg/kg/injection, schedule: Q01DX011 (ip), vehicle: other, evaluated on day 12, higher T/C = larger tumour): 71 % of control
T/C (T/C endpoint: mean tumor weight, dose: 5.0 mg/kg/injection, schedule: Q01DX011 (ip), vehicle: other, evaluated on day 12, higher T/C = larger tumour): 112 % of control
T/C (T/C endpoint: mean tumor weight, dose: 10.0 mg/kg/injection, schedule: Q01DX011 (ip), vehicle: other, evaluated on day 12, higher T/C = larger tumour): 79 % of control
T/C (T/C endpoint: mean tumor weight, dose: 20.0 mg/kg/injection, schedule: Q01DX011 (ip), vehicle: other, evaluated on day 12, higher T/C = larger tumour): 72 % of control
survivor count (T/C endpoint: mean tumor weight, dose: 20.0 mg/kg/injection, schedule: Q01DX011 (ip), vehicle: other, higher T/C = larger tumour): 1 of 6
survivor count (T/C endpoint: mean tumor weight, dose: 40.0 mg/kg/injection, schedule: Q01DX011 (ip), vehicle: other, higher T/C = larger tumour): 0 of 6
survivor count (T/C endpoint: mean tumor weight, dose: 80.0 mg/kg/injection, schedule: Q01DX011 (ip), vehicle: other, higher T/C = larger tumour): 0 of 6
